This is one part of the list.
Columns and labels:
Assay in all cases: log2 fold change, soluble protein after heating vs DMSO (PISA); higher = thermal stabilisation; K562 lysate, 10 uM; active = over 0.2 and 3.5 SD of the protein, either way, in both replicates (recomputed)
vemurafenib = compound: CCCS(=O)(=O)Nc1ccc(F)c(C(=O)c2c[nH]c3ncc(-c4ccc(Cl)cc4)cc23)c1F [vemurafenib]
Method in brief: (§1)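 K562 pellets were dounce-homogenised in PBS pH 7.4 with 1 mM MgCl2, and the crude extract at 1 mg/mL protein was treated with 10 μM compound for 30 min. Aliquots were heated for 3 min across 48°C-58°C, pooled, and brought to 0.5% NP-40 at 4°C; soluble protein was the supernatant after 21,000xg for 90 min. Soluble protein was quantified by TMTpro 16plex LC-MS/MS with channel sums equalised, and reported as log2 fold change in thermal stability against DMSO controls, with values from duplicates.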

Protein sequences, listed by entry. Tags and fused reporters are not part of them. Lines headed by an entry give the natural chain unless they say otherwise; changes in a name come on top.
UniProt Q53FZ2: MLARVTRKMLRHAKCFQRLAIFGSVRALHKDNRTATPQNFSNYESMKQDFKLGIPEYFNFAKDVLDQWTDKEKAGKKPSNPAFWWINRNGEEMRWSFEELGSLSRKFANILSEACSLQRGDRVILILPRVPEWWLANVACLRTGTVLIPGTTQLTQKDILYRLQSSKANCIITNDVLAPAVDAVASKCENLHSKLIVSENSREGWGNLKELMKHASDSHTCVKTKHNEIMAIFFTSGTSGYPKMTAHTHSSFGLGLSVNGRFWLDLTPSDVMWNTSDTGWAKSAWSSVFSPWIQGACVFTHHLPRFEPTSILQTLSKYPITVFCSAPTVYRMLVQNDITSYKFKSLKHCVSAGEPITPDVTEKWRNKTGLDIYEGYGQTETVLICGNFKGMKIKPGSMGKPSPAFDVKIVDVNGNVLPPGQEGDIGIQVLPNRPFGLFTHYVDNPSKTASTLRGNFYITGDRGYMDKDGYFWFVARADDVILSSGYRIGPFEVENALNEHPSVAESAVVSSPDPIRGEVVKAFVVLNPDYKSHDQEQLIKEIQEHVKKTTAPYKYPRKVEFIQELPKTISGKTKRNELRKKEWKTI
UniProt O43823: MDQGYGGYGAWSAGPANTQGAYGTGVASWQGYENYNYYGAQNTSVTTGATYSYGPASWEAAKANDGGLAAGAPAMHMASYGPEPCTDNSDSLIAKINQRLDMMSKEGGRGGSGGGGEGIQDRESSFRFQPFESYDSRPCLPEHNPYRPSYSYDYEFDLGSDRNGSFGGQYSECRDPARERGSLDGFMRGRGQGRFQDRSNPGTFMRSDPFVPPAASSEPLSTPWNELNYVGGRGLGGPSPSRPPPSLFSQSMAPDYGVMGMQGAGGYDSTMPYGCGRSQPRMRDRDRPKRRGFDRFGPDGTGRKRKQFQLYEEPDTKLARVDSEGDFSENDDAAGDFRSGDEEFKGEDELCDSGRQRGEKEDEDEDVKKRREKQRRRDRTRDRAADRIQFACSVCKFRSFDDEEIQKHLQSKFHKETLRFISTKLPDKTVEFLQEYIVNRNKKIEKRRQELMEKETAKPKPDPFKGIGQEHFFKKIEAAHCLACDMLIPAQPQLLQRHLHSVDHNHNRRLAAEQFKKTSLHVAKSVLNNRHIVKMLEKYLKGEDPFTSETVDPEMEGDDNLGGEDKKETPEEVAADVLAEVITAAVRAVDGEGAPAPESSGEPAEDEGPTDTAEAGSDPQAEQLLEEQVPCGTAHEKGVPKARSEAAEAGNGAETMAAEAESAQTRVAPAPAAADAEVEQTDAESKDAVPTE
UniProt P30520: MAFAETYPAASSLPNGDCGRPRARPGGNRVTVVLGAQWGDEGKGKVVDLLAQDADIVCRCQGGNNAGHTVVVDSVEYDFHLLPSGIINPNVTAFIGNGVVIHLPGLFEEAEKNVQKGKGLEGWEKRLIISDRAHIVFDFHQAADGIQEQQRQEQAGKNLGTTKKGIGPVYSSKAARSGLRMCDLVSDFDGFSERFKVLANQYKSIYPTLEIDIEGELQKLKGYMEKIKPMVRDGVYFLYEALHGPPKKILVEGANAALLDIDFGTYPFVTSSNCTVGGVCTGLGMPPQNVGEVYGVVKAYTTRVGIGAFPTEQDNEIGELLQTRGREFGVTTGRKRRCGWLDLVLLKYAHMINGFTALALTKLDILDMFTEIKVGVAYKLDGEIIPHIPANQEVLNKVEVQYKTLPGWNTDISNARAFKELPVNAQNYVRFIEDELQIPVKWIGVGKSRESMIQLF
UniProt P11766: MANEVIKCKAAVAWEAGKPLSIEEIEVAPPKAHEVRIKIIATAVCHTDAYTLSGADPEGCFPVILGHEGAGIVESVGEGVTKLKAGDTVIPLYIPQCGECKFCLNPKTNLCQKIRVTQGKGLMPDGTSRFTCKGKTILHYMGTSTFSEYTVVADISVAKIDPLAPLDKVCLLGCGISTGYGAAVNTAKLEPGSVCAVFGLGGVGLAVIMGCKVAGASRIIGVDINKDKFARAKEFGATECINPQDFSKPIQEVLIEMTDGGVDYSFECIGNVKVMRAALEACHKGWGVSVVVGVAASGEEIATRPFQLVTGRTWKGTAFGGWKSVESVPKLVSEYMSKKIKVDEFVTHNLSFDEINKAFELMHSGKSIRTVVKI
UniProt Q9UKA4: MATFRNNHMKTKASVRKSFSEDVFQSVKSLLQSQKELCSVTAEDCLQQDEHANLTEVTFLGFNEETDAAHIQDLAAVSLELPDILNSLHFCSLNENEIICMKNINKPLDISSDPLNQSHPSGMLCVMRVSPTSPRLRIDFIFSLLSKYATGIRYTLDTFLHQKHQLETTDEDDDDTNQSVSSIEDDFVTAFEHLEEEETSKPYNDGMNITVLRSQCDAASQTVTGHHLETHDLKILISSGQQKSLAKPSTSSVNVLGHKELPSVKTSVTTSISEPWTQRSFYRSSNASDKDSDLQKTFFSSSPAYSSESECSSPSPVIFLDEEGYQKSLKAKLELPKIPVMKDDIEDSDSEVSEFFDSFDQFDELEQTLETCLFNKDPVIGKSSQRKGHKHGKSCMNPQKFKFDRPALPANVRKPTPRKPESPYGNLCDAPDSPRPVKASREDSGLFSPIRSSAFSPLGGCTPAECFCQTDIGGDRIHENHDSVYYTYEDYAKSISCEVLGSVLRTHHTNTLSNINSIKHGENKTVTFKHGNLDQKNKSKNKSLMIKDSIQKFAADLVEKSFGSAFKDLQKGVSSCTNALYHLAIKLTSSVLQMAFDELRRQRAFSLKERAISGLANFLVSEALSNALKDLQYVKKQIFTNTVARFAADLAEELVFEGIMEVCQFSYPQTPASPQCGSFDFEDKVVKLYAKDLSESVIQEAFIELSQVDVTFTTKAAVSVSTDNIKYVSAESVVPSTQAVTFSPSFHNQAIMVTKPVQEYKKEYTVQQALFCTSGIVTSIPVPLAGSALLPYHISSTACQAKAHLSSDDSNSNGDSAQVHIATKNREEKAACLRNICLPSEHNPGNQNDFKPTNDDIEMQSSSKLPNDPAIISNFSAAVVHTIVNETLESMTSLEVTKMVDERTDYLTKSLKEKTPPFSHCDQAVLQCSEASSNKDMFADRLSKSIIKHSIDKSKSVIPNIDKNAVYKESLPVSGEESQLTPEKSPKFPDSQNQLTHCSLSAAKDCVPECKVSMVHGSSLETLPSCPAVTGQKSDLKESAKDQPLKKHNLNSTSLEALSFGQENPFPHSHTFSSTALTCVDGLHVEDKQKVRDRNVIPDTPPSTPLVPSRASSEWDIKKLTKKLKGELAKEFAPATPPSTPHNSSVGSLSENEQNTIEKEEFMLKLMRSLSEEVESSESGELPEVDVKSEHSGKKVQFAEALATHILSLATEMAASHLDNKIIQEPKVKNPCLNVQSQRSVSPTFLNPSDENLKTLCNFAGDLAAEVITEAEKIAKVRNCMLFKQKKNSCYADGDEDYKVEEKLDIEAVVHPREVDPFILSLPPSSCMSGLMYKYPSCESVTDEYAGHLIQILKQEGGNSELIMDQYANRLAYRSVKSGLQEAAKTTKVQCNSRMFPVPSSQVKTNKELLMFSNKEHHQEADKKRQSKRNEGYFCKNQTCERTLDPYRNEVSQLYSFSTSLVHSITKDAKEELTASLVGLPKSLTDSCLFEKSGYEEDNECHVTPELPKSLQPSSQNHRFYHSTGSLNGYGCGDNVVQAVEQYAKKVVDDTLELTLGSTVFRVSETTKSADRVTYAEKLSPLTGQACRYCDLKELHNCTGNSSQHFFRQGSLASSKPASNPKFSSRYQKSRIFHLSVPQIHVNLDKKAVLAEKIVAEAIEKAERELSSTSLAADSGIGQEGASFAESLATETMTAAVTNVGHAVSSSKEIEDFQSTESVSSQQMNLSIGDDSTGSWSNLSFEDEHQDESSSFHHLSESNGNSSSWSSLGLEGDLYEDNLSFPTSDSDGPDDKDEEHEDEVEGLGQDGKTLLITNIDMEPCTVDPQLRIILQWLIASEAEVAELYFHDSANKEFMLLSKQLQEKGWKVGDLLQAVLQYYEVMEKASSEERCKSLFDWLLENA
UniProt Q9Y3D8, whole entry, looked up: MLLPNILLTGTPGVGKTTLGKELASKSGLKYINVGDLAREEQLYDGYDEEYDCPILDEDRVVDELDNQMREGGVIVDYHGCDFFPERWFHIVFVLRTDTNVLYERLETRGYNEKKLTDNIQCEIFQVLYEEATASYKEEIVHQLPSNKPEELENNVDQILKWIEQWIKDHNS

[1] = compound: CCCS(=O)(=O)Nc1ccc(F)c(C(=O)c2c[nH]c3ncc(Cl)cc23)c1F
Method in brief: as §1

barasertib = compound: CCN(CCCOc1ccc2c(Nc3cc(CC(=O)Nc4cccc(F)c4)[nH]n3)ncnc2c1)CCOP(=O)(O)O [barasertib]
Method in brief: as §1

[2] = compound: CC[C@@H]1C(=O)N(C)c2cnc(Nc3ccc(C(=O)NC4CCN(C)CC4)cc3OC)nc2N1C1CCCC1
Method in brief: as §1

volasertib = compound: CC[C@@H]1C(=O)N(C)c2cnc(Nc3ccc(C(=O)N[C@H]4CC[C@H](N5CCN(CC6CC6)CC5)CC4)cc3OC)nc2N1C(C)C [volasertib]
Method in brief: as §1

[3] = compound: CCn1c(C(=O)N(C2CC2)C2CC2)cc2c3c(ncn3C)c(Nc3cc(C)n(C)n3)nc21
Method in brief: as §1

[4] = compound: CCn1cc(-c2ccnc3[nH]c(-c4cccc(CN(C)C)c4)cc23)c(-c2ccc(NC(=O)N(C)C)cc2)n1
Method in brief: as §1

[5] = compound: CN1CCC(CNc2ccc3ncc(-c4cccc(OC(F)(F)F)c4)n3n2)CC1
Method in brief: as §1

saracatinib = compound: CN1CCN(CCOc2cc(OC3CCOCC3)c3c(Nc4c(Cl)ccc5c4OCO5)ncnc3c2)CC1 [saracatinib]
Method in brief: as §1

sotrastaurin = compound: CN1CCN(c2nc(C3=C(c4c[nH]c5ccccc45)C(=O)NC3=O)c3ccccc3n2)CC1 [sotrastaurin]
Method in brief: as §1

alvocidib = compound: CN1CC[C@H](c2c(O)cc(O)c3c(=O)cc(-c4ccccc4Cl)oc23)[C@H](O)C1 [alvocidib]
Method in brief: as §1

Tubastatin A = compound: CN1CCc2c(c3ccccc3n2Cc2ccc(C(=O)NO)cc2)C1 [Tubastatin A]
Method in brief: as §1

[6] = compound: CNC(=O)C1=CC=CC=C1NC2=NC(=NC=C2Cl)NC3=C(C=C(C=C3)N4CCOCC4)OC
Method in brief: as §1

defactinib = compound: CNC(=O)c1ccc(Nc2ncc(C(F)(F)F)c(NCc3nccnc3N(C)S(C)(=O)=O)n2)cc1 [defactinib]
Method in brief: as §1

[7] = compound: CNc1nc(-c2ccc3c(N)n[nH]c3c2)cc(N2C[C@@H](C(=O)NC3CCCCC3)CC[C@H]2C)n1
Method in brief: as §1

encorafenib = compound: COC(=O)N[C@@H](C)CNc1nccc(-c2cn(C(C)C)nc2-c2cc(Cl)cc(NS(C)(=O)=O)c2F)n1 [encorafenib]
Method in brief: as §1

[8] = compound: COC(=O)[C@H](CCSC)NC(=O)C1=C(C=C(C=C1)NC[C@H](CS)N)C2=CC=CC=C2
Method in brief: as §1

alisertib = compound: COc1cc(Nc2ncc3c(n2)-c2ccc(Cl)cc2C(c2c(F)cccc2OC)=NC3)ccc1C(=O)O [alisertib]
Method in brief: as §1

[9] = compound: COc1cc2nc(-c3cc(F)ccc3O)nc(N[C@@H]3CNC[C@H]3C(C)(C)O)c2cc1OC
Method in brief: as §1

gefitinib = compound: COc1cc2ncnc(Nc3ccc(F)c(Cl)c3)c2cc1OCCCN1CCOCC1 [gefitinib]
Method in brief: as §1

Measured: log2 fold change

ACSM3 (UniProt Q53FZ2)
inactive: vemurafenib 0.083 | [1] 0 | barasertib -0.022 | [2] -0.019 | volasertib -0.027 | [3] 0.001 | [4] 0.029 | [5] -0.033 | saracatinib 0.033 | sotrastaurin -0.017 | alvocidib 0.008 | Tubastatin A -0.01 | [6] -0.023 | defactinib 0.001 | [7] 0 | encorafenib -0.007 | [8] 0.093 | alisertib -0.019 | [9] 0.014 | gefitinib 0.013

AKAP8 (UniProt O43823)
inactive: vemurafenib 0.006 | [1] 0.044 | barasertib 0.056 | [2] -0.009 | volasertib -0.03 | [3] -0.013 | [4] -0.056 | [5] 0.044 | saracatinib 0.075 | sotrastaurin 0.008 | alvocidib -0.031 | Tubastatin A -0.038 | [6] -0.059 | defactinib -0.001 | [7] -0.073 | encorafenib 0.072 | [8] -0.098 | alisertib 0.02 | [9] 0.058 | gefitinib -0.042

AGO1 (UniProt Q9UL18)
inactive: vemurafenib -0.016 | [1] 0.014 | barasertib 0.023 | [2] 0.172 | volasertib 0.028 | [3] -0.013 | [4] 0.129 | [5] -0.054 | saracatinib 0.016 | sotrastaurin 0.005 | alvocidib 0.019 | Tubastatin A 0.058 | [6] 0.007 | defactinib -0.05 | [7] 0.034 | encorafenib -0.007 | [8] -0.029 | alisertib 0.007 | [9] -0.012 | gefitinib 0.041

ADSS2 (UniProt P30520)
inactive: vemurafenib -0.014 | [1] 0 | barasertib 0 | [2] 0 | volasertib 0.015 | [3] -0.022 | [4] -0.063 | [5] 0.065 | saracatinib -0.012 | sotrastaurin -0.022 | alvocidib -0.036 | Tubastatin A 0.038 | [6] 0.014 | defactinib -0.02 | [7] 0.014 | encorafenib 0.011 | [8] -0.028 | alisertib -0.008 | [9] 0.005 | gefitinib 0.007

ADH5 (UniProt P11766)
inactive: vemurafenib 0.003 | [1] -0.035 | barasertib -0.017 | [2] -0.039 | volasertib 0.024 | [3] -0.007 | [4] -0.04 | [5] 0.029 | saracatinib -0.026 | sotrastaurin -0.031 | alvocidib 0.018 | Tubastatin A 0.042 | [6] -0.011 | defactinib -0.039 | [7] -0.009 | encorafenib -0.03 | [8] 0.016 | alisertib -0.004 | [9] 0.014 | gefitinib -0.014

AKAP11 (UniProt Q9UKA4)
inactive: vemurafenib -0.272 | [1] -0.029 | barasertib 0.082 | [2] 0.051 | volasertib 0.038 | [3] -0.055 | [4] 0.044 | [5] -0.024 | saracatinib 0.028 | sotrastaurin -0.103 | alvocidib 0.032 | Tubastatin A 0.026 | [6] 0.001 | defactinib 0.093 | [7] -0.01 | encorafenib -0.03 | [8] 0.144 | alisertib -0.022 | [9] -0.119 | gefitinib -0.114

AK6 (UniProt Q9Y3D8)
inactive: vemurafenib 0.007 | [1] -0.079 | barasertib 0.04 | [2] -0.045 | volasertib 0.032 | [3] 0.033 | [4] -0.001 | [5] -0.009 | saracatinib 0.027 | sotrastaurin 0.011 | alvocidib 0.025 | Tubastatin A -0.113 | [6] 0 | defactinib -0.038 | [7] -0.108 | encorafenib 0.03 | [8] -0.012 | alisertib 0.019 | [9] 0.026 | gefitinib 0.01

ACTB, A0A2R8Y793
inactive: vemurafenib 0.024 | [1] 0.032 | barasertib 0.012 | [2] -0.009 | volasertib -0.084 | [3] -0.022 | [4] -0.045 | [5] 0.012 | saracatinib 0.014 | sotrastaurin 0.014 | alvocidib 0.023 | Tubastatin A -0.038 | [6] 0.012 | defactinib 0.011 | [7] 0.024 | encorafenib -0.033 | [8] 0.02 | alisertib 0.007 | [9] 0.005 | gefitinib -0.039

Reference: the supplement of paper PMC10849652
